# Measurements from publication doi:10.1101/2022.11.14.515780.
# By UniProt entry, the sequences of proteins in these tests, tags left out.
# UniProt P34149: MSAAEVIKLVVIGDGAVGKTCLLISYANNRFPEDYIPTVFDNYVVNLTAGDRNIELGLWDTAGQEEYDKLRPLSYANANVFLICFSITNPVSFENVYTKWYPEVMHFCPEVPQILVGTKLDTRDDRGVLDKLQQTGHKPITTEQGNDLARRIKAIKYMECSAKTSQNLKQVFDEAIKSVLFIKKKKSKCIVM
# No constants are given. Whether binding was seen depends on the method and setting. Binding seen in cells or lysates may run through a third protein. Some results given as binding are weak or reduced against the parent protein; the word gives no strength.
# Target: T1, GxcM-RFP (Dictyostelium discoideum) (UniProt Q1ZXN6)
# T1 sequence: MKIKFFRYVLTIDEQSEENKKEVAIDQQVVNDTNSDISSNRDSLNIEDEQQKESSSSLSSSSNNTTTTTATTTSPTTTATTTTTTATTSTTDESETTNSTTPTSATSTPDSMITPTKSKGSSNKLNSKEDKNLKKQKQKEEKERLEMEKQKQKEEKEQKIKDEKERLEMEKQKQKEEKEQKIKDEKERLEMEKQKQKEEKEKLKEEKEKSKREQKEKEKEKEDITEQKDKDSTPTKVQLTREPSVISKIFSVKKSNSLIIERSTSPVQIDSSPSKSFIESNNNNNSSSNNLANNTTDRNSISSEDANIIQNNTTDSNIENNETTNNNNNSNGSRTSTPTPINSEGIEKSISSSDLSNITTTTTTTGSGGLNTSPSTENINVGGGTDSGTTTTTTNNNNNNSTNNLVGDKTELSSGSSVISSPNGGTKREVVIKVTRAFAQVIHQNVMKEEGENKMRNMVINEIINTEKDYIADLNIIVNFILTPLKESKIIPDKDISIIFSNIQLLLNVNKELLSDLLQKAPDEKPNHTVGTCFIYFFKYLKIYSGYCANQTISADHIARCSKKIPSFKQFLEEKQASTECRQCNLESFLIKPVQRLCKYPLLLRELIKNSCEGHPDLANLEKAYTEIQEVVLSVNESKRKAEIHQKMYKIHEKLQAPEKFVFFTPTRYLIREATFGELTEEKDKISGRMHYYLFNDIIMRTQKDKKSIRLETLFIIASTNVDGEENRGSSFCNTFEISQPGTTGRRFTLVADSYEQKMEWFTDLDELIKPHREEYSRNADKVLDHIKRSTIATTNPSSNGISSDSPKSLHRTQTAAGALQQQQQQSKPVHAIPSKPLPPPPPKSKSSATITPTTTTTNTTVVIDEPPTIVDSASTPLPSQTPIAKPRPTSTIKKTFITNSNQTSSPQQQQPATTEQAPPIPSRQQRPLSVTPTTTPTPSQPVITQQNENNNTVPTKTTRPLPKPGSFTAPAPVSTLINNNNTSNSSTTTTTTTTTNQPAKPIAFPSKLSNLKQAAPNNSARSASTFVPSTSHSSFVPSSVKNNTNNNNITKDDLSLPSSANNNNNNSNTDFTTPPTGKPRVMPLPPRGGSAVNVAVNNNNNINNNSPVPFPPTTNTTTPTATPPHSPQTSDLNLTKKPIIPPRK
# Assay: co-IP
row,binding,Substance
1,no binding,GFP-Rac1A (from UniProt P34144 1-194)
2,binds,GFP-RacC (from UniProt P34149 1-192)
